Test results taken from PMC3907542 (PLoS ONE, 2014).
Read-outs that look alike come from different tables or passages of the source.

How the values were obtained:
rat plasma proteins = experiment: Plasma protein binding of nifedipine in vitro with or without baicalin (ultrafiltration); type: in vitro ADME; details: start of the increase with increasing baicalin (0 to 2000 mg/L)
[1] = for V: nifedipine 2 mg/kg i.v.
plasma proteins = details: in vivo, nifedipine and saline
in vivo = details: Sprague Dawley, rat, iv, 2 mg/kg, rats; for AUC(0-inf): AUC0–∞, nifedipine 2 mg/kg i.v.; for Cmax: C max, total nifedipine 2 mg/kg i.v., n = 12
[2] = after baicalin 0.225 g/kg vs control, rats

SMILES: COC(=O)C1=C(C)NC(C)=C(C(=O)OC)C1c1ccccc1[N+](=O)[O-] [nifedipine]
- unbound nifedipine (%) (rat plasma proteins): 4.00%
- decrease of AUC0–∞ [1, 2]: 41%±8%
- decrease of C max of total nifedipine [1, 2]: 40%±14%
- increase of apparent volume of distribution (Vd) [1, 2]: 85% ±43%
- increase of apparent volume of distribution (Vd) ([1]; after baicalin […] vs control, rats): 224%±231%
- V ([1]; after baicalin 0.225 g/kg i.v., rats): 0.26 ± 0.06 L/kg
- V ([1]; after baicalin […] i.v., rats): 0.46±0.07 ^△ L/kg
- V ([1]; control (saline), rats): 0.14 ± 0.03 L/kg
- decrease of C max, individual rat ([1]; rat 7, baicalin 0.225 g/kg): 12.11%
- decrease of C max, individual rat ([1]; rat 8, baicalin 0.225 g/kg): 57.91%
- mean unbound nifedipine (%) (plasma proteins): 3.92%
- AUC(0-inf) (in vivo; after baicalin 0.225 g/kg i.v.): 6580 ± 1290 ng·h/mL
- AUC(0-inf) (in vivo; after baicalin […] i.v.): 4060 ± 670 ng·h/mL
- AUC(0-inf) (in vivo; control (saline)): 11100 ± 1170 ng·h/mL
- Cmax (in vivo; after baicalin 0.225 g/kg i.v.): 8420 ± 2280 ng/mL
- Cmax (in vivo; after baicalin […] i.v.): 4970 ± 1750 ng/mL
- Cmax (in vivo; control (saline)): 14100 ± 2700 ng/mL
